Measured values: paper PMC5372602
These are yes or no findings as the source states them, for the method shown. Binding seen in cells or lysates may run through a third protein. Binding can be weak; no strength is given.

By UniProt entry, the sequences of proteins in these tests, tags left out. Where a name states a change or a piece, a line headed by the entry shows the natural chain unless it says otherwise.
UniProt Q13153: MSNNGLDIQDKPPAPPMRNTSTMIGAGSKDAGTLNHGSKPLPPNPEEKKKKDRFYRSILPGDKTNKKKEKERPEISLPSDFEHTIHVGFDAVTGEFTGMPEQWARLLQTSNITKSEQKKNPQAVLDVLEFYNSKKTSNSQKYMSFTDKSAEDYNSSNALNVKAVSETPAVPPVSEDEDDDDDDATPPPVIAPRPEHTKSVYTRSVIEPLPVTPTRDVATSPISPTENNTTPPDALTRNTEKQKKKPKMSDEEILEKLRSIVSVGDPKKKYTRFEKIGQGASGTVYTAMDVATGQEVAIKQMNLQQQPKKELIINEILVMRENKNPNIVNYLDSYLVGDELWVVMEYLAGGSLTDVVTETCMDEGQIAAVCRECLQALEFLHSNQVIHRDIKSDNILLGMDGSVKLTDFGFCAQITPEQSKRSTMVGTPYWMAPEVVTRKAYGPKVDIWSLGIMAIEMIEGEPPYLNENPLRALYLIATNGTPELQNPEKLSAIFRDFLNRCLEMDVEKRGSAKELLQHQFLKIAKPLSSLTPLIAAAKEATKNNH
UniProt P60953: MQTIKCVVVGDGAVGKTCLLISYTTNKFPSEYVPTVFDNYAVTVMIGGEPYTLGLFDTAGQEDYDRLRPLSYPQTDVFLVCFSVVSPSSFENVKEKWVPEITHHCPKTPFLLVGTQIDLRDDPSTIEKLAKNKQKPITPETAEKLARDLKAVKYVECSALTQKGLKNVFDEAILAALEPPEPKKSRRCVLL

Biological target: GST-PAK1-PBD (Pak1-binding domain of Pak1 fused to GST, on beads) (UniProt Q13153)
Assay: pull-down; only the target purified

With “Cell division cycle 42 (CDC42), GTP-bound active form (from UniProt P60953 1-191)” the binding was “binds”.
